Results deposited as PubChem BioAssay AID504764 (Drosophila RNAi Screening Center, 2011)

Aim: 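Genes whose knock-down alters Notch-dependent transcription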 (primary screen)
Cells: Drosophila Kc167 cells
Knock-down reagent: long dsRNA against Drosophila genes
Duration: about 5 days (4 days dsRNA, then 24 h after transfection)
Conditions: transfection of constitutively active membrane-tethered Notch lacking the extracellular domain, read 24 h later
Detection: 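Light from a Notch-responsive E(spl)m3 luciferase reporter under active Notch, with control-promoter and no-Notch reporter wells to normalise; raw counts from paired wells a and b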
Scale: induced reporter light, run 1, well a and induced reporter light, run 1, well b: higher = more light from the Notch target reporter with active Notch; control promoter light, run 1, well a and control promoter light, run 1, well b: higher = more light from the viral control promoter (cell number, transfection, viability); uninduced reporter light, run 1, well a: higher = more light from the Notch target reporter without active Notch
Hit rule: 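Wells with low control signal or poorly matching duplicates excluded; duplicates averaged; per source plate, z beyond ±2 for induced/control log2 ratio or beyond ±1.8 for induced/uninduced marks a hit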
Calls: active = modifier hit (raised or lowered Notch signal); inactive = not a hit
The screen tested about 22,000 reagents; shown is an unselected part of those that have a named target and a result. Of all reagents, 403 (1.9%) were called active. 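Unnormalised raw counts per well; ratio z-scores behind the hit calls and whether each hit raises or lowers signal are not deposited.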 A plus sign joins genes that one reagent is predicted to hit. Not stated in the record: the amount of reagent.

With TfIIEalpha (Transcription factor IIEalpha) [DRSC11303], what does the deposit list?
induced reporter light, run 1, well a: 1.14e5; induced reporter light, run 1, well b: 1.38e5; control promoter light, run 1, well a: 76970; control promoter light, run 1, well b: 35395; uninduced reporter light, run 1, well a: 12175; activity call: inactive

What did the screen give for CG31915 [DRSC03000]?
induced reporter light, run 1, well a: 1.39e5; induced reporter light, run 1, well b: 1.25e5; control promoter light, run 1, well a: 1.93e5; control promoter light, run 1, well b: 1.40e5; uninduced reporter light, run 1, well a: 9780; activity call: inactive

What did the screen give for CG2444 [DRSC19846]?
induced reporter light, run 1, well a: 1.11e5; induced reporter light, run 1, well b: 1.14e5; control promoter light, run 1, well a: 2.22e5; control promoter light, run 1, well b: 2.04e5; uninduced reporter light, run 1, well a: 8685; activity call: inactive

For betaTub97EF (beta-Tubulin at 97EF) [DRSC15666], what was measured?
induced reporter light, run 1, well a: 70405; induced reporter light, run 1, well b: 83490; control promoter light, run 1, well a: 1.58e5; control promoter light, run 1, well b: 1.30e5; uninduced reporter light, run 1, well a: 9305; activity call: inactive

Which result is listed for betaTub97EF (beta-Tubulin at 97EF) [DRSC15667]?
induced reporter light, run 1, well a: 1.77e5; induced reporter light, run 1, well b: 1.48e5; control promoter light, run 1, well a: 2.26e5; control promoter light, run 1, well b: 1.88e5; uninduced reporter light, run 1, well a: 15110; activity call: inactive

What is on record for betaTub97EF (beta-Tubulin at 97EF) [DRSC15668]?
induced reporter light, run 1, well a: 1.12e5; induced reporter light, run 1, well b: 1.09e5; control promoter light, run 1, well a: 1.52e5; control promoter light, run 1, well b: 1.70e5; uninduced reporter light, run 1, well a: 10445; activity call: inactive

What did the screen give for dgt2 (dim gamma-tubulin 2) [DRSC02548]?
induced reporter light, run 1, well a: 2.08e5; induced reporter light, run 1, well b: 2.18e5; control promoter light, run 1, well a: 2.45e5; control promoter light, run 1, well b: 2.81e5; uninduced reporter light, run 1, well a: 18530; activity call: inactive

With E(spl)m7-HLH (Enhancer of split m7, helix-loop-helix) [DRSC16696], what was measured?
induced reporter light, run 1, well a: 1.86e5; induced reporter light, run 1, well b: 1.75e5; control promoter light, run 1, well a: 2.22e5; control promoter light, run 1, well b: 2.99e5; uninduced reporter light, run 1, well a: 16088; activity call: inactive

With Or98b (Odorant receptor 98b) [DRSC16775], what was measured?
induced reporter light, run 1, well a: 1.63e5; induced reporter light, run 1, well b: 1.73e5; control promoter light, run 1, well a: 2.10e5; control promoter light, run 1, well b: 1.89e5; uninduced reporter light, run 1, well a: 15045; activity call: inactive

How did the screen score Or98b (Odorant receptor 98b) [DRSC21751]?
activity call: inactive

What is on record for robl62A [DRSC08153]?
induced reporter light, run 1, well a: 1.43e5; induced reporter light, run 1, well b: 1.09e5; control promoter light, run 1, well a: 1.76e5; control promoter light, run 1, well b: 1.45e5; uninduced reporter light, run 1, well a: 8538; activity call: inactive

Which result is listed for CG32706 + CG6999 [DRSC18412]?
induced reporter light, run 1, well a: 91095; induced reporter light, run 1, well b: 78905; control promoter light, run 1, well a: 1.04e5; control promoter light, run 1, well b: 1.03e5; uninduced reporter light, run 1, well a: 7025; activity call: inactive
